In article PMC6367419 (Nature Communications, 2019) one finds binding data, which are given here for 1 molecule.

Results are given in words; binding and its absence hold for the method and conditions named.

For this test, the target named is EscN^29–446 (EPEC type III secretion system ATPase EscN, residues 29–446) (enteropathogenic Escherichia coli (EPEC) O127:H6 E2348/69) (UniProt B7UMA6). The experiment in a line: SEC + co-sedimentation; EscN alone without the transition state analogue; size exclusion chromatography, glycerol gradient centrifugation and negative-stain EM; both purified.

B1: EscN^29–446 (EPEC type III secretion system ATPase EscN, residues 29–446) (enzyme)
chain: NSSTRYEGKIINIGGTIIKARLPKARIGAFYKIEPSQRLAEVIAIDEDEVFLLPFEHVSGMYCGQWLSYQGDEFKIRVGDALLGRLIDGIGRPMESNIVAPYLPFERSLYAEPPDPLLRQVIDQPFILGVRAIDGLLTCGIGQRIGIFAGSGVGKSTLLGMICNGASADIIVLALIGERGREVNEFLALLPQSTLSKCVLVVTTSDRPALERMKAAFTATTIAEYFRDQGKNVLLMMDSVTRYARAARDVGLASGEPDVRGGFPPSVFSSLPKLLERAGPAPKGSITAIYTVLLESDNVNDPIGDEVRSILDGHIVLTRELAEENHFPAIDIGLSASRVMHNVVTSEHLRAAAECKKLIATYKNVELLIRIGEYTMGQDPEADKAIKNRKLIQNFIQQSTKDISSYEKTIESLFKVVA
notes: also called T3SS ATPase; chains NA to NF; source: E. coli BL21 (λDE3), purified (HisTrap HP, thrombin cleavage, second HisTrap HP, desalting)
On to B1, for which the binding entry is listed as “no binding (condition: without Mg2+ADP-AlF3)”.
